# Article PMC5996148
# The other results are listed elsewhere or left out. For some assays here: The source does not settle which construct or isoform was used.
# Experiments:
# Assay in all cases: protein microarray (ProtoArray v5.0), streptavidin-Alexa Fluor 647
# Conditions in all cases: 3'-biotin; 20 mM Tris (pH 7.5), 5 mM MgCl2, 100 mM KCl, 0.1% Tween-20, A/T-rich and random oligonucleotide blockers; temperature not stated; high values mean tight binding
# SPATS2 = molecular target: T1, SPATS2 (UniProt Q86XZ4)
# T1 sequence: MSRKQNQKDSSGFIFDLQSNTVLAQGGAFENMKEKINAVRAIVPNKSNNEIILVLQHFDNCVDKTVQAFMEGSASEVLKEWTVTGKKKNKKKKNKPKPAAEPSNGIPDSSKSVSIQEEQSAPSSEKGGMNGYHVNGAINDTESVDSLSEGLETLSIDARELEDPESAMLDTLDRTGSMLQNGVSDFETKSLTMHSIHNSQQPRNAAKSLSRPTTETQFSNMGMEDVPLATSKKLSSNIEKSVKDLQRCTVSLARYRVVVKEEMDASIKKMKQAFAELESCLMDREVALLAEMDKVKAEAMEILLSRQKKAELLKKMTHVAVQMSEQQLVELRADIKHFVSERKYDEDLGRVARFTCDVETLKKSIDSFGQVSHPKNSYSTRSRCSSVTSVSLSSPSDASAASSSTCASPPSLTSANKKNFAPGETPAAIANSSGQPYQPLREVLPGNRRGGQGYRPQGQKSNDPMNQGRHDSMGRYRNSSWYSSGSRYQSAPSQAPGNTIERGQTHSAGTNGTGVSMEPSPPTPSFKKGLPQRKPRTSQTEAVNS
# SPDEF (human) = tested on: SPDEF (human)
# SPG21 (human) = tested on: SPG21 (human)
# SPHK1 (human) = tested on: SPHK1 (human)
# SPRR4 = molecular target: T2, SPRR4 (UniProt Q96PI1)
# T2 sequence: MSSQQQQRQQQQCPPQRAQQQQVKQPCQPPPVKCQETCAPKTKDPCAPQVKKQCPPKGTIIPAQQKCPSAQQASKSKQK
# SRPX2 (human) = tested on: SRPX2 (human)
# SS18L2 = molecular target: T3, SS18L2 (UniProt Q9UHA2)
# T3 sequence: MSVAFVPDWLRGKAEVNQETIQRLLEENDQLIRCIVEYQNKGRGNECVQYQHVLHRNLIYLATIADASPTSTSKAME
# SSBP3 (human) = tested on: SSBP3 (human)
# SSPN (human) = tested on: SSPN (human)
# STAM (human) = tested on: STAM (human)
# STAP1 = molecular target: T4, STAP1 (UniProt Q9ULZ2)
# T4 sequence: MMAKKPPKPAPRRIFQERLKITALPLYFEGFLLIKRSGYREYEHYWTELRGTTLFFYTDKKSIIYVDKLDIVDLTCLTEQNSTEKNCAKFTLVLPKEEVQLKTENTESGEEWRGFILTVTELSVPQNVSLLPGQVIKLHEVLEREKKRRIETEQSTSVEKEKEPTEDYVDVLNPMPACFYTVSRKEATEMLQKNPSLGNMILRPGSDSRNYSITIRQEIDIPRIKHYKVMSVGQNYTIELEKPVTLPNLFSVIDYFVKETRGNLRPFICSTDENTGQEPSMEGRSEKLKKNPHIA
# STCH (human) = tested on: STCH (human)
# STEAP4 (human) = tested on: STEAP4 (human)
# STK10 (human) = tested on: STK10 (human)
# STK16 (human) = tested on: STK16 (human)
# STK40 (human) = tested on: STK40 (human)
# STON1 (human) = tested on: STON1 (human)
# STX18 (human) = tested on: STX18 (human)
# STXBP2 (human) = tested on: STXBP2 (human)
# STYX (human) = tested on: STYX (human)
sequence,measurement,setting,value
GGTGACAGGGGTATGGGGAGGGG [G4-2 biotinylated (Ct1)],binding signal,SPATS2,3.78 z-score
same,binding signal,SPDEF (human),-0.387 z-score
same,binding signal,SPG21 (human),-0.406 z-score
same,binding signal,SPHK1 (human),-0.38 z-score
same,binding signal,SPRR4,6.44 z-score
same,binding signal,SRPX2 (human),-0.366 z-score
same,binding signal,SS18L2,-0.399 z-score
same,binding signal,SSBP3 (human),-0.409 z-score
same,binding signal,SSPN (human),-0.361 z-score
same,binding signal,STAM (human),-0.358 z-score
same,binding signal,STAP1,5.96 z-score
same,binding signal,STCH (human),-0.378 z-score
same,binding signal,STEAP4 (human),-0.359 z-score
same,binding signal,STK10 (human),-0.366 z-score
same,binding signal,STK16 (human),-0.372 z-score
same,binding signal,STK40 (human),-0.377 z-score
same,binding signal,STON1 (human),-0.382 z-score
same,binding signal,STX18 (human),-0.386 z-score
same,binding signal,STXBP2 (human),-0.371 z-score
same,binding signal,STYX (human),-0.375 z-score

# A second format for part of the listing above:
sequence	measurement	setting	value
GGTGACAGGGGTATGGGGAGGGG [G4-2 biotinylated (Ct1)]	binding signal	SRPX2 (human)	-0.366 z-score
same	binding signal	SS18L2	-0.399 z-score
